Results on four substances are retold here after publication PMC5696369.

Protein sequences, listed by entry. Tags and fused reporters are not part of them.
UniProt O00471: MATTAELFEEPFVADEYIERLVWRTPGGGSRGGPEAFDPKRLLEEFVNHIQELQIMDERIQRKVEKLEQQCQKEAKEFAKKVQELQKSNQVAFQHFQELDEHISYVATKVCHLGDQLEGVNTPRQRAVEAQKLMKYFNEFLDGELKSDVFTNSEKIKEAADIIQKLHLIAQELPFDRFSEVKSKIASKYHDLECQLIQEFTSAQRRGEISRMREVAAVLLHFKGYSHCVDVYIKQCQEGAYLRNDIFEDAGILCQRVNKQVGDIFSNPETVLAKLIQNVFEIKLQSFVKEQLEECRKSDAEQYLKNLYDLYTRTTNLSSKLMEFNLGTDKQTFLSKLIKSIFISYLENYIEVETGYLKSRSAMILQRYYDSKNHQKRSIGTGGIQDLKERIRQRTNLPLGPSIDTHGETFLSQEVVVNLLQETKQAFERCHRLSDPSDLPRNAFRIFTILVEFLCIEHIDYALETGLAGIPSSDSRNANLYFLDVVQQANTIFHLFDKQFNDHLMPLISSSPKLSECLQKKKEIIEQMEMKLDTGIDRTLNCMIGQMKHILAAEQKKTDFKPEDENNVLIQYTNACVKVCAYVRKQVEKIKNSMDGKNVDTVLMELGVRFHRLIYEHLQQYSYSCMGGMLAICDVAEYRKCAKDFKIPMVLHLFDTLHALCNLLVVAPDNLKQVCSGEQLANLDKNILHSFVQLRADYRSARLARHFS
UniProt Q8TAG9: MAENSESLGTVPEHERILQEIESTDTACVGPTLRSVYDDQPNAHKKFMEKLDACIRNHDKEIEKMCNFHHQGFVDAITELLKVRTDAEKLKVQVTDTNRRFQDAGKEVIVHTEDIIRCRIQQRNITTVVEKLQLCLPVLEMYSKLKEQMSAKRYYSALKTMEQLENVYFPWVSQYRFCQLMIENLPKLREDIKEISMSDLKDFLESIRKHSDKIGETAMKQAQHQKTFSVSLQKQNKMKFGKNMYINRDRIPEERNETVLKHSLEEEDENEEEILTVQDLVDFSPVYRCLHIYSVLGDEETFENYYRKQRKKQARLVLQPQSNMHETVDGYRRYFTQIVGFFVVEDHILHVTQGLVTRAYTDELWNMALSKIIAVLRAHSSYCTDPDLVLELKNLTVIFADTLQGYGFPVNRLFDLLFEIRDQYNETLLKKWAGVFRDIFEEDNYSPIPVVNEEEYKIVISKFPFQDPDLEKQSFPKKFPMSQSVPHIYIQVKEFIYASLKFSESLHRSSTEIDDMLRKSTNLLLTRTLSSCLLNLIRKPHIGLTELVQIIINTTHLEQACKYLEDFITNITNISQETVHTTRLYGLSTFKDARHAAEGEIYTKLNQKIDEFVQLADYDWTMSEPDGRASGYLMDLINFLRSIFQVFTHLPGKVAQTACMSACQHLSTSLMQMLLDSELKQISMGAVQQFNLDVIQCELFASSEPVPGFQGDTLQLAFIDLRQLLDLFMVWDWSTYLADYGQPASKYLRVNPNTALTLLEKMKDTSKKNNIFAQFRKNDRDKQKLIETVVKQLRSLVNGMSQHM
UniProt Q9UPT5: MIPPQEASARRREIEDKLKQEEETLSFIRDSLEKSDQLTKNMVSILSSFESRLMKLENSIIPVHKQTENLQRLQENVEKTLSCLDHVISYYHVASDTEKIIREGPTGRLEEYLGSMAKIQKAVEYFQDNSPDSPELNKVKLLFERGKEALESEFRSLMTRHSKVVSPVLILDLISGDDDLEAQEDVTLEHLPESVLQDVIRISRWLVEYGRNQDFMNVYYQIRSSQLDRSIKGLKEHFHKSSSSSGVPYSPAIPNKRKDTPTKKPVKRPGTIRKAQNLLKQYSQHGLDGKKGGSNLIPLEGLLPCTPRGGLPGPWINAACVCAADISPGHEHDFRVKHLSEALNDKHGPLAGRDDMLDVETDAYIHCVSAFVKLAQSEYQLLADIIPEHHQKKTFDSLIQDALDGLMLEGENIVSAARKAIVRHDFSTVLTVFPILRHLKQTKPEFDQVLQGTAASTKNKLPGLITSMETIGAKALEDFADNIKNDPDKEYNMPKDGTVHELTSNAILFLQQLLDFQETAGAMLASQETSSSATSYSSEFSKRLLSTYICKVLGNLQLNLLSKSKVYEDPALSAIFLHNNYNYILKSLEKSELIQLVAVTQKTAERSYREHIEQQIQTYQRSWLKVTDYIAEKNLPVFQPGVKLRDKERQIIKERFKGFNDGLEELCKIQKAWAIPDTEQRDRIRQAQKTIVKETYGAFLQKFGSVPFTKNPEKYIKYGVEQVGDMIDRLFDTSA
UniProt Q8IYI6: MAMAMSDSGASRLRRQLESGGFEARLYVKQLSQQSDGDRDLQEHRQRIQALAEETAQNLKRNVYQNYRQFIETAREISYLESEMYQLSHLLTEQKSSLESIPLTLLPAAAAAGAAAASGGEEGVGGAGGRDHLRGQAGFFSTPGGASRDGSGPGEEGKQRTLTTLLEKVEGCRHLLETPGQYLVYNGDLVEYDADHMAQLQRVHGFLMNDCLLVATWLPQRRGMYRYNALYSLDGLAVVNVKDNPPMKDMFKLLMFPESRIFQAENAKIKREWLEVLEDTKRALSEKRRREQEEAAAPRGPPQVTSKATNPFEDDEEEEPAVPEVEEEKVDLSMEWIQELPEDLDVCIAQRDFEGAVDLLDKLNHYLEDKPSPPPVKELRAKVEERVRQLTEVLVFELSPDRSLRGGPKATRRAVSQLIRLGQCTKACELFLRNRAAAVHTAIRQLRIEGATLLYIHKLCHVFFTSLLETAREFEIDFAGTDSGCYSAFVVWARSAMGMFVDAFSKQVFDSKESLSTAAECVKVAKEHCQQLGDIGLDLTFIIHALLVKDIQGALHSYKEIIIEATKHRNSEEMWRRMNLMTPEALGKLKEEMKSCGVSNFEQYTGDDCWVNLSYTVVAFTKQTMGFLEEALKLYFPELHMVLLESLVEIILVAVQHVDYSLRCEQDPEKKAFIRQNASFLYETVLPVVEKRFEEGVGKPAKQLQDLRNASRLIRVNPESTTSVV

No constants are given. Whether binding was seen depends on the method and setting. In cells and extracts the contact can be indirect. Some binding calls cover weakened binding; strength is not graded here. Tags and fused reporters may be left off the sequences shown.

Test [1] deals with T1, FLAG-tagged DPPA3 1-60 aa-mVenus (mouse) (UniProt Q8QZY3).
T1 sequence: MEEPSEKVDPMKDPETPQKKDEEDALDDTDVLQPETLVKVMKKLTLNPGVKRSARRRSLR
The test can be described thus: co-IP; anti-FLAG immunoprecipitation from lysates of HEK 293T cells transfected separately with the FLAG-tagged DPPA3-mVenus constructs; immunoblot for endogenous proteins. (In general: In western blotting, separated proteins are transferred to a membrane and probed.)

The target of test [2] is T2, FLAG-tagged DPPA3 WT (1-150 aa)-mVenus (mouse) (UniProt Q8QZY3).
T2 sequence: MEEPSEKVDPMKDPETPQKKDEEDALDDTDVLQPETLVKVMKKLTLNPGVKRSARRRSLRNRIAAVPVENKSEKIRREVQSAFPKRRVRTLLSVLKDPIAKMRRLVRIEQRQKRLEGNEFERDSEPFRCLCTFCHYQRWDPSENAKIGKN
Described as above.

In the case of EXOC5 (from UniProt O00471 1-708), the binding entry in test [1] and in test [2] was “binds” throughout.
Consider EXOC6 (from UniProt Q8TAG9 1-804), for which the binding result in test [1] and in test [2] was “binds” each time.
Consider EXOC7 (from UniProt Q9UPT5 1-735), for which the binding entry in test [1] and in test [2] was “binds” throughout.
Take EXOC8 (from UniProt Q8IYI6 1-725): the binding entry in test [1] and in test [2] was “binds” each time.
